Experimental data as given in patent publication US9931331B2 (priority 2013, dated 2018).
At least one compound was matched to its structure with a doubt left.

Key:
[1] = system: cervical cancer cell (HeLa); experiment: Cell viability (calcein-AM / ethidium homodimer-1), HeLa; settings: MLN9708 alone up to 200 nM, 24 h
Experimental: (§1) Strains of cervical cancer cell (HeLa), kidney cancer cell (Caki-1), brain tumor cell (T98G), breast cancer cell (MDA-MB 435S), and colon cancer cell (DLD-1), multiple myeloma cell (RPMI-8226), and a strain of normal breast epithelial cell (MCF-10A) were available from ATCC (American Type Culture Collection, USA). The strains of cervical cancer cell (HeLa), kidney cancer cell (Caki-1), brain tumor cell (T98G), breast cancer cell (MDA-MB 435S), and colon cancer cell (DLD-1) were cultured by using a DMEM medium including 10% fetal bovine serum (FBS), 2 mM of L-glutamin, 100 i.u./ml of penicillin, and […] of streptomycin for the culture and maintenance; multiple myeloma cell (RPMI-8226) was cultured by using a RPMI1640 medium including 10% FBS, 100 i.u./ml of penicillin, and […] of streptomycin; and the strain of normal breast epithelial cell (MCF-10A) was cultured by using a mammary epithelial growth medium (MEGM) including a bovine pituitary extract, insulin, human epidermal growth factor, hydrocortisone, and antibiotics, and the culture conditions included 37° C. and 5% CO2 in an incubator.
(§2) Then, the cells were stained by using 2 μM calcein-AM and 4 μM ethidium homodimer-1, and cell viability was measured by using a fluorescent microscope (Axiovert 200M, available from Carl Zeiss, Jena, Germany).

brain tumor cell (T98G) = experiment: Cell viability (calcein-AM / ethidium homodimer-1), T98G; settings: curcumin alone 20 μM, 24 h
Experimental: as §1, §2

| SMILES | cell toxicity [1] | cell viability (in words) (brain tumor cell (T98G)) |
| --- | --- | --- |
| CC(C)C[C@H](NC(=O)CNC(=O)c1cc(Cl)ccc1Cl)B1OC(=O)C(CC(=O)O)(CC(=O)O)O1 [MLN9708] | did not exhibit cell toxicity | – |
| COc1cc(/C=C/C(=O)CC(=O)/C=C/c2ccc(O)c(OC)c2)ccc1O [Curcumin] | – | almost did not decrease |
